Patent US5162499A, “Synthetic peptides for the treatment of AIDS” (Heterocyclic Research, Inc., priority 1991, dated 1992)
Part of at least one peptide drawing is inferred or uncertain, most often the ends. Square brackets hold non-standard residues; d marks the D form. Peptide text beside a SMILES is read from it.

Tested on: Human monocytes
Experiment: Chemotaxis assay (monocyte migration in agarose plates)
Format: cell-based
Design: key to Chemotactic Index: (cells migrating to attractant − cells migrating to buffer)/10
Conditions: for Chemotactic Index: human monocytes
Excerpt: Briefly, monocyte migration is directly observed in a chemotaxis chamber.
A comparative study comparing the chemotactic activity of the peptides of the invention with the chemotactic activity of peptide T (C. B. Pert et al., Proc. Natl. Acad. Sci., Vol. 83, pp. 9254-9258, 1986) was undertaken. […] Human monocytes were obtained by the known technique of layering heparinized blood on FICOLL-HYPAQUE differential dentrifugation medium in a centrifuge tube and spinning to separate the red blood cells from plasma and the monolayered monocytes. The monocytes were pipetted off and then washed with physiological saline.
The agarose plates were also prepared in accordance with conventional methods. Agarose type II (0.4 g), available from Sigma Chemical, and LITEX gelatin (0.3 g) were combined and heated until the gelatin was thoroughly dissolved. RMPI-HANK buffer (4 ml), distilled water (15.2 ml) and saturated NaHCO3 solution (0.8 ml) were then added to the agarose gelatin and mixed to homogeneity. 5 ml aliquots of the resulting solution were poured into plastic petri dishes (FALCON 55 mm) and allowed to gel. After the agarose has sufficiently hardened, wells, 3 mm in diameter were cut in the agarose, such that each dish had six rows of wells radiating from the center of the dish, each row containing three wells spaced apart by a distance of 3 mm. Thus, each plate was used to assay two test samples in triplicate. 8 ul of the test peptide (in 120 mM HEPES buffer) was placed on the outermost well, 8 ul of monocyte cell solution was placed in the center well and 8 ul of RPMI-HANKS buffer was placed in the innermost well. The migration of monocytes was visually observed and the number of migrating cells was determined. A chemotactic index was calculated as the number of cells which migrated toward the attractant, i.e., test peptide or control, less the number of cells that migrated towards the buffer divided by 10. Formyl-Met-Leu-Phe (FMLP) and (D-Ala)Peptide-T were used as positive control and HEPES buffer and Leu-Gly-Gly were used as negative controls.

SMILES: CSCC[C@H](NC(=O)[C@H](Cc1ccc(O)cc1)NC(=O)[C@H](CC(N)=O)NC(=O)[C@H](CO)NC(=O)[C@H](CO)NC(=O)[C@H](CO)NC(=O)[C@H](C)NC(=O)[C@@H](C)N)C(=O)O [Example 4, D-Ala-Ala-Ser-Ser-Ser-Asn-Tyr-Met] (H-[dA]ASSSNYM-OH)
- Effectiveness in the chemotaxis assay compared with peptide T (assay described by Ruff et al. (1987)): more effective than peptide T
- Chemotactic Index (attractant concentration 10^-9 M): 4.8
- Chemotactic Index (attractant concentration 10^-10 M): 4.5
- Chemotactic Index (attractant concentration 10^-11 M): 5.3
- Chemotactic Index (attractant concentration 10^-12 M): 5.1
